Laboratory results from article PMC12572126.

Protein sequences, listed by entry. Tags and fused reporters are not part of them. Lines headed by an entry give the natural chain unless they say otherwise; changes in a name come on top.
UniProt G0S5M5: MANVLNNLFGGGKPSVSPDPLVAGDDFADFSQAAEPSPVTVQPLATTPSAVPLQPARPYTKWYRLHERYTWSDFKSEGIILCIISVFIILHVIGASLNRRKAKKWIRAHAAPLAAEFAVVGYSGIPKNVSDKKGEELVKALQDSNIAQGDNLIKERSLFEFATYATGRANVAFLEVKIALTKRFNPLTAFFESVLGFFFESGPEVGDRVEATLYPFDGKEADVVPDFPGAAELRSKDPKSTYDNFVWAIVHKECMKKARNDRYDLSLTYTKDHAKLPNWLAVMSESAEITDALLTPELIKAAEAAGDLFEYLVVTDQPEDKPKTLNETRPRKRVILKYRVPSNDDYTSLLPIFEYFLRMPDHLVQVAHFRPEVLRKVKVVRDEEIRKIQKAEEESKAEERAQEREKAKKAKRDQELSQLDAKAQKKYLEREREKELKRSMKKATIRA

Tests used:
[1] = biological target: Chaetomium thermophilum SND3 with a C-terminal TwinStrep tag (Chaetomium thermophilum) (UniProt G0RYQ7); assay: affinity purification with mass spectrometry + SEC; ctSND3-TwinStrep captured on StrepTactin resin from membranes solubilised in 0.5% LMNG, eluted with d-Desthiobiotin, SEC on Superdex 200 increase in 20 mM HEPES pH 8.0, 100 mM potassium acetate, 10 mM magnesium acetate, 0.01% LMNG; Coomassie-stained gel bands identified by MS, western blotting
[2] = biological target: Chaetomium thermophilum CCDC47 with a FLAG tag (Chaetomium thermophilum) (UniProt G0S5M5); assay: affinity purification with mass spectrometry; tandem purification from the ctSND3-TwinStrep/ctCCDC47-FLAG strain: StrepTactin resin, then anti-FLAG M2 affinity gel, eluted with 3xFLAG peptide, 0.01% LMNG; Coomassie-stained gel bands identified by MS
[3] = biological target: Chaetomium thermophilum CCDC47 with a FLAG tag (Chaetomium thermophilum) (UniProt G0S5M5); assay: affinity purification with mass spectrometry; eluate of the FLAG-IP of ctCCDC47-FLAG (digitonin; membranes treated with micrococcal nuclease), against a control purification from wild-type C. thermophilum, four independent purifications

binding [1]	binding [2]	binding [3]	Substance
binds	–	–	Chaetomium thermophilum CCDC47 (untagged, endogenous) (from UniProt G0S5M5)
–	binds	binds	Chaetomium thermophilum SND3 with a C-terminal TwinStrep tag (from UniProt G0RYQ7)

These are yes or no findings as the source states them, for the method shown. In cells and extracts the contact can be indirect. A yes stands for co-enrichment or nearness to the bait. Other partners may have been found.
